# Test results published in article PMC10450186.
# By UniProt entry, the sequences of proteins in these tests, tags left out.
# UniProt P15927: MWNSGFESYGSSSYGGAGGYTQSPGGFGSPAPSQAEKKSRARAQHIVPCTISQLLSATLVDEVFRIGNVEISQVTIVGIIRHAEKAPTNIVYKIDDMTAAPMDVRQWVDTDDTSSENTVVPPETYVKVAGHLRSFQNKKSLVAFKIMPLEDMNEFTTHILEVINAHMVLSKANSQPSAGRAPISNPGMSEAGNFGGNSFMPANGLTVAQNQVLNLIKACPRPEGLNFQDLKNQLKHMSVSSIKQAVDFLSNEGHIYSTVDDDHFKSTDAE
# Results are given in words; binding and its absence hold for the method and conditions named. For some of these results: In cells and extracts the contact can be indirect. Where a sequence is shown, tags or fusion partners need not be part of it. Some binding calls cover weakened binding; strength is not graded here.
# How the values were obtained:
# [1] = molecular target: T1, full-length NSMF tagged with 3×FLAG at the N-terminus and eGFP at the C-terminus, purified (UniProt Q6X4W1); assay: co-IP; in vitro IP of purified proteins: incubated in NETN buffer at 4°C for 1 h, anti-GFP-coupled protein G agarose, western blotting of RPA subunits; both purified
# T1 sequence: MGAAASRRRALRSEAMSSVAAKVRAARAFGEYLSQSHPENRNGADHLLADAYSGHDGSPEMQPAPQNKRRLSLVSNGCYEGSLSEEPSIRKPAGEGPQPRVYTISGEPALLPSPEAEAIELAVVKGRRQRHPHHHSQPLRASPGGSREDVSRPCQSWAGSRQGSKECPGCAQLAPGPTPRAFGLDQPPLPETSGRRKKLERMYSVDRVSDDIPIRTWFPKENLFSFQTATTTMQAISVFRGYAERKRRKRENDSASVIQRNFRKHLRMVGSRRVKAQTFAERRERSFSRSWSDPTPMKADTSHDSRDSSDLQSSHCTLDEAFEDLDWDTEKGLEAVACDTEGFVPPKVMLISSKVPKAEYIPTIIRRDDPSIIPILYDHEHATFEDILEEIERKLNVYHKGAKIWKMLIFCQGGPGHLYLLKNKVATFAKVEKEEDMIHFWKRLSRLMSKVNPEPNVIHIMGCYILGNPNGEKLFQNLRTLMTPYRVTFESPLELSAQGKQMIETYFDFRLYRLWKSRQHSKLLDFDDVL
# [2] = molecular target: T2, FLAG-NSMF-ΔD2 (HeLa) (UniProt Q6X4W1); assay: co-IP; HeLa cells transfected with FLAG-NSMF WT or ΔD2; details in the Supplementary Data
# T2 sequence: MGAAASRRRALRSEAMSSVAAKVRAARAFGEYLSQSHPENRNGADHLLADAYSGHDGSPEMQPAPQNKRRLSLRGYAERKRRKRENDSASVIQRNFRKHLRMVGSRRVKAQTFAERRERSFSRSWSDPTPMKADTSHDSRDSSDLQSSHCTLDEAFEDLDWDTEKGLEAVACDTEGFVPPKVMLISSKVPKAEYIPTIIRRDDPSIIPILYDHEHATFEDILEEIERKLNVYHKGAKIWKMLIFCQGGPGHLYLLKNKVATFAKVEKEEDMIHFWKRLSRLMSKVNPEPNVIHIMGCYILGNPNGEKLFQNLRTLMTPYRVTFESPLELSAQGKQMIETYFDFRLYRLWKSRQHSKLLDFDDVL
binding [1],binding [2],Substance
binds,,"RPA trimer consisting of the RPA70, RPA32 and RPA14 subunits, purified (from UniProt P27694 1-616; P15927 1-270; P35244 1-121) (complex)"
no binding,,purified RPA70 subunit (purchased) (from UniProt P27694 1-616)
,no binding,"RPA32, endogenous (from UniProt P15927 1-270)"
no binding,,"individual RPA32 subunit, purified (from UniProt P15927 1-270) (other; other documents disagree on this pair)"
